From PubChem BioAssay AID1508600 (Functional Genomics Laboratory (NCATS/FGL), 2020) come the findings set out here.

In all, about 53,000 sequences went through this assay and about 3,700 (7%) were called active.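 The calls were made as follows: active = gene knockdowns whose robust z-score for IL-1 alpha signal is at least 2 or at most -2, so actives lie on both sides; inactive = the rest.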 The list shows a part of the results.

This assay is described as follows: Components of the Cytosolic LPS Sensing Pathway: Gene Identification via Genome-wide siRNA Screen.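 Also: robust z of the log signal after scaling to non-targeting control siRNA wells of the plate.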 The following applies: RAW264.7 macrophages, IL-1a HTRF, actives lie on both sides, screened at 100 nM (by protocol), cells primed 5 h with Pam3CSK4 first. In short, it runs like this: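 Three distinct siRNAs per gene were tested singly at 100 nM in RAW264.7 macrophages. Following Pam3CSK4 priming and 24 hour LipidA transfection, IL-1a secretion was read by HTRF.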
(In general: Time-resolved FRET reads energy transfer from a long-lived donor to a nearby acceptor.)
In the case of GCUAUGGAACAGUCUGUCCTT against Clec5a, the z-score was inactive: -0.522.

Take “CGGAAGAAGUUAUUUAGAATT against 1700006J14Rik”: the z-score is inactive: 0.87.

Regarding GGUUGUCGUCAUCCUGGAATT against Kcnj3, the z-score is inactive: -0.854.

Regarding GGAAGGUAUAGACAACUAUTT against Syngr3, the z-score was inactive: 1.72.

As for GCCGUUUUCCACCAAUGACTT against Ammecr1, the z-score is inactive: -0.5.

Turning to CGAAAUUGAUUCUAUCUGCTT against Katnal1, the z-score was inactive: -0.59.

For GGUUUCUGCAUUGAUAAGATT against Olfr727, the z-score was inactive: -0.342.

Regarding CGCUUGACACUCACACUUUTT against Hoxa9, the z-score was inactive: 0.316.

With GGUAGAUAUUGGAAUACCUTT against Vcp, the z-score is inactive: -1.69.

For GGUAGCCAUAUCUAACAGCTT against Scd1, the z-score is active: -2.02.

GGAUGUAAAAUCCAUUGUUTT against Ica1l: the z-score was inactive: -0.647.

As for CCUUCCUAAGCUUACACAATT against Cradd, the z-score was inactive: 0.598.

Take GCAAGUAACAAUCGCUUAUTT against Wdr47: the z-score is inactive: 0.394.

On to GGUGCUGUAUUUGAUGUUATT against Nudt6, for which the z-score is inactive: 0.544.

On to CCAGUACUCACUAGAUUUATT against Tnfsf18, for which the z-score is inactive: 1.17.

Consider GCACUGGAAAUUGUAUAAATT against Hyal6, for which the z-score was active: 2.19.

Take GGAAAACAAGAGAAGGCGCTT against Pom121: the z-score is inactive: 0.361.

For the sequence GGAAACUUAUGGAAAGUCUTT against Trmt11, the z-score was inactive: 0.606.

Turning to GAGUAUGCUACCAAUUCCUTT against Olfr1141, the z-score is inactive: 0.776.

For the sequence CCUACGUUCAAGACUCGAGTT against Ptgir, the z-score was inactive: 1.47.

For GGCAAAGCAUAUUUUUCUATT against Med17, the z-score is inactive: -0.138.

In the case of GCAAUUGAGACUGGCCUCATT against Olfr151, the z-score was inactive: 0.253.

Consider GCAUCAUCGUGGGAAACCUTT against Olfr1284, for which the z-score was inactive: 0.331.

On to GGUUGGCAUGUUUGGUGUUTT against Arhgap35, for which the z-score was inactive: -0.451.

For the sequence GGGAAAGCAAAAAUAAUCUTT against Pdpn, the z-score is inactive: 1.11.

On to CCUGUUGUCAUGCACUUUATT against Pla2g4c, for which the z-score was inactive: -0.99.

For the sequence UCCUCUCUCUAUAUUUCUUTT against Defb38, the z-score was inactive: -0.588.

As for GGACAUUUGAGCUCAAGAUTT against Mrpl11, the z-score is inactive: 0.609.

For the sequence GGCAAGCACACAAUGAUGCTT against Plin5, the z-score was inactive: -0.0222.

For the sequence GGCGAGUCUACGUGACACUTT against Arrb1, the z-score was inactive: 0.701.

With GGUGCCGCACACAAACAAUTT against Hipk2, the z-score was active: -2.02.

Take GGAUCAUUAAGACCCAGCATT against Ddx59: the z-score is inactive: -1.36.

Consider GGCGUAAGUUGGAUUUGUUTT against Idh3b, for which the z-score is inactive: 0.652.

Take GGCAGAUGAUCCCGGGAUUTT against Clvs1: the z-score is inactive: 0.545.

Take GGGUUGAAGUUUGUCGAAATT against Nlgn1: the z-score is inactive: 0.496.

Take GGAAGAUUCGUUCAGACCUTT against Cntf: the z-score was inactive: -0.743.

GGGCUCUUGUGUUAAGGCATT against Krt27: the z-score is inactive: -0.119.

With GGCAUUUGAAAUGCUCAUCTT against Aadat, the z-score was inactive: -1.7.

As for GCACGCCUGAUGCUAGAGATT against Gss, the z-score was inactive: -0.0299.

For the sequence GGCAAUAAGUAAACACCUGTT against Hnf4aos, the z-score was inactive: 0.364.

Turning to GGAGGAAUUUGGCUAUAAUTT against Arfip2, the z-score is inactive: 0.122.

Turning to CGGUCCUGAGGAAGUGUUATT against Wfdc1, the z-score is inactive: 0.655.

Regarding GGAAAAUGUCCGUAAAAGGTT against Dtx2, the z-score is inactive: 0.196.

Regarding GCACUCACGAUCAUCUUUGTT against Has1, the z-score is inactive: -0.513.

Regarding GCACUAAUGACUACAUCCGTT against Cmtm4, the z-score was inactive: 1.05.

In the case of GGAGAAGAUGCCAAUCAAGTT against Mdm1, the z-score was inactive: 0.336.

For the sequence GGACAUUGCUACACAACUCTT against Akp3, the z-score was inactive: -1.26.

Turning to GGCAAAUCACAUCCAACAATT against Cyp2c39, the z-score was inactive: -1.74.

As to GGGUGCCUUAAAAAAACUCTT against Olfr136, the z-score was inactive: 0.786.

Turning to GCGAAAGCCUCUCCAUAAGTT against Lnx1, the z-score is inactive: -0.663.

As to GGACAAGAGGAGCUUUUGCTT against Id3, the z-score is inactive: -0.446.

Consider GGCAAUACAGGCAUCUUCATT against Vmn1r-ps8, for which the z-score is inactive: -1.54.

Turning to GGGAAACAAAAAGCAGAUATT against Ccdc47, the z-score is inactive: 0.325.

On to GGCCUGCUUUGUUCUGAAUTT against Olfr846, for which the z-score is active: -2.53.

As to GGAGUUUCUCCAAGAAAAATT against Agfg2, the z-score is inactive: 0.0363.

Consider GGCUACGACAGAAAAGACUTT against Mrpl58, for which the z-score is inactive: 0.983.

With GGACUUUCGUCGUACUCGUTT against Terf1, the z-score is inactive: -1.73.

As to GGACCAUAAAACAAGUAUCTT against Carns1, the z-score is inactive: -1.01.

On to CCAAACCAGGUGUUGUCUUTT against Esam, for which the z-score is inactive: 0.308.

Regarding “CCAACACGUUGCACAGAGUTT against A830073O21Rik”, the z-score was inactive: 0.611.

For CCUAAUUAUAACCCUGACCTT against Olfr845, the z-score was inactive: 0.682.

In the case of GCGAUUGUCCAAGAAUUCCTT against Crcp, the z-score is inactive: 0.822.

For the sequence UCACCUACAGCGGAUCUCATT against Oxt, the z-score is inactive: -0.821.

In the case of CGACUGGAAUCUAAUAACUTT against Fgf2, the z-score is inactive: 0.987.

In the case of GGAUGCACUCAAGAAUUACTT against Ccdc65, the z-score was active: 2.11.

On to GGAGUGCUUGAAGAACAUATT against Kcnk7, for which the z-score is inactive: -1.26.

GGACAAAAGACUUGAAUUUTT against Alox15: the z-score is inactive: 1.86.

As for CCAUUCCAGUUAUGUCAAUTT against Pus3, the z-score is inactive: -1.06.
